In the experiment the target is T1, Human aquaglyceroporin 3 (AQP3), full-length, C-terminal poly-histidine tag (human), Q92482.
T1 chain: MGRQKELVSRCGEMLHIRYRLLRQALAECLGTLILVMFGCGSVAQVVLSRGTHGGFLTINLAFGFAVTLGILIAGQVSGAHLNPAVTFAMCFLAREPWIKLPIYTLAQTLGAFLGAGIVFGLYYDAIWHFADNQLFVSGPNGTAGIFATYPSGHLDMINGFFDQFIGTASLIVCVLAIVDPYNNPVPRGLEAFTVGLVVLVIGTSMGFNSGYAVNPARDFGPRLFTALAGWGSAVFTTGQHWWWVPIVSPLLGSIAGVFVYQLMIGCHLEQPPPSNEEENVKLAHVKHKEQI
Briefly: cryo-EM 2D class averages; AQP7 and AQP3 samples in GDN flash frozen on C-flat Cu R1.2/1.3 grids, same conditions as for the Quantifoil grids; step looked at: tetramer with tetramer (dimer of tetramers); both purified. The settings on record: remark: other sources report otherwise.

Results are given in words; binding and its absence hold for the method and conditions named. Tags and fused reporters may be left off the sequences shown.

B1: Human aquaglyceroporin 3 (AQP3), full-length, C-terminal poly-histidine tag, Q92482 1-292 (protein)
chain: T1 chain
In the case of B1, the binding result was “no binding”.
